No constants are given. Whether binding was seen depends on the method and setting. Binding seen in cells or lysates may run through a third protein. These calls come from enrichment with a bait or labelling near it, and not all partners need be listed.
Target: PbNEK4-GFP (Plasmodium berghei NIMA-related kinase NEK4 with a C-terminal GFP tag) (Plasmodium berghei)
Assay: affinity purification with mass spectrometry; GFP-Trap_A (Chromotek) immunoprecipitation of PbNEK4-GFP from zygotes activated for 2 h and cross-linked with 1% formaldehyde for 10 min at room temperature; WT-GFP zygotes as control; on-bead trypsin digest, LC-MS/MS; two independent biological replicates

Amino acid sequences for entries named in this document (tags omitted). A change or cut given only in a name is not applied to a line headed by its entry.
UniProt A0A509ATL7: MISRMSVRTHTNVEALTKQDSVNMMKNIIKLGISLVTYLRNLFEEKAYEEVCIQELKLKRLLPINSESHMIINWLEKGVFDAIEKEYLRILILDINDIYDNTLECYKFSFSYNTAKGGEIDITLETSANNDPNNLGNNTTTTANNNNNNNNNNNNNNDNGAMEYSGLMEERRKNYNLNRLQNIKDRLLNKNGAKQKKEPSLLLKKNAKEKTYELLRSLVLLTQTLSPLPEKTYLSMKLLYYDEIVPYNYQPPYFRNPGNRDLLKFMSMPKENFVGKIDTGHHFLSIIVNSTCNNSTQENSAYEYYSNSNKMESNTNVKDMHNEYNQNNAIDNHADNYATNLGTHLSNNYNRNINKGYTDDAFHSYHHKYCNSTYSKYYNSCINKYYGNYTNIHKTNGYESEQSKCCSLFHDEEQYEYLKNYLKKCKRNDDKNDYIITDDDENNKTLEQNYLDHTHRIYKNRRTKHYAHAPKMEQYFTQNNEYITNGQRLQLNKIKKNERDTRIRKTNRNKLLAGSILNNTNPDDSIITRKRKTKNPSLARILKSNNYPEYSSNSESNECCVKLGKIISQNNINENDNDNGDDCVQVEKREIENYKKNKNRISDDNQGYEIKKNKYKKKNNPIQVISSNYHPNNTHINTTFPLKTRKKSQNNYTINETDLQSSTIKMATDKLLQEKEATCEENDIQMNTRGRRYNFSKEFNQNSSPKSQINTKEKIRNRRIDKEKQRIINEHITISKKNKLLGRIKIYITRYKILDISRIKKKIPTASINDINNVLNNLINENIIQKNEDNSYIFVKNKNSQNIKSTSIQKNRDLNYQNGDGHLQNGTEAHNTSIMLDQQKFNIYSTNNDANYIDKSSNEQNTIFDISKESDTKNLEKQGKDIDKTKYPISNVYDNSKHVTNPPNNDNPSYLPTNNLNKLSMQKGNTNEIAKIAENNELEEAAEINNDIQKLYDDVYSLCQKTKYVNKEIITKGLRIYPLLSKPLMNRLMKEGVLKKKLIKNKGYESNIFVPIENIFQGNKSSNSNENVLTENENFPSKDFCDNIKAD
UniProt A0A509AND3: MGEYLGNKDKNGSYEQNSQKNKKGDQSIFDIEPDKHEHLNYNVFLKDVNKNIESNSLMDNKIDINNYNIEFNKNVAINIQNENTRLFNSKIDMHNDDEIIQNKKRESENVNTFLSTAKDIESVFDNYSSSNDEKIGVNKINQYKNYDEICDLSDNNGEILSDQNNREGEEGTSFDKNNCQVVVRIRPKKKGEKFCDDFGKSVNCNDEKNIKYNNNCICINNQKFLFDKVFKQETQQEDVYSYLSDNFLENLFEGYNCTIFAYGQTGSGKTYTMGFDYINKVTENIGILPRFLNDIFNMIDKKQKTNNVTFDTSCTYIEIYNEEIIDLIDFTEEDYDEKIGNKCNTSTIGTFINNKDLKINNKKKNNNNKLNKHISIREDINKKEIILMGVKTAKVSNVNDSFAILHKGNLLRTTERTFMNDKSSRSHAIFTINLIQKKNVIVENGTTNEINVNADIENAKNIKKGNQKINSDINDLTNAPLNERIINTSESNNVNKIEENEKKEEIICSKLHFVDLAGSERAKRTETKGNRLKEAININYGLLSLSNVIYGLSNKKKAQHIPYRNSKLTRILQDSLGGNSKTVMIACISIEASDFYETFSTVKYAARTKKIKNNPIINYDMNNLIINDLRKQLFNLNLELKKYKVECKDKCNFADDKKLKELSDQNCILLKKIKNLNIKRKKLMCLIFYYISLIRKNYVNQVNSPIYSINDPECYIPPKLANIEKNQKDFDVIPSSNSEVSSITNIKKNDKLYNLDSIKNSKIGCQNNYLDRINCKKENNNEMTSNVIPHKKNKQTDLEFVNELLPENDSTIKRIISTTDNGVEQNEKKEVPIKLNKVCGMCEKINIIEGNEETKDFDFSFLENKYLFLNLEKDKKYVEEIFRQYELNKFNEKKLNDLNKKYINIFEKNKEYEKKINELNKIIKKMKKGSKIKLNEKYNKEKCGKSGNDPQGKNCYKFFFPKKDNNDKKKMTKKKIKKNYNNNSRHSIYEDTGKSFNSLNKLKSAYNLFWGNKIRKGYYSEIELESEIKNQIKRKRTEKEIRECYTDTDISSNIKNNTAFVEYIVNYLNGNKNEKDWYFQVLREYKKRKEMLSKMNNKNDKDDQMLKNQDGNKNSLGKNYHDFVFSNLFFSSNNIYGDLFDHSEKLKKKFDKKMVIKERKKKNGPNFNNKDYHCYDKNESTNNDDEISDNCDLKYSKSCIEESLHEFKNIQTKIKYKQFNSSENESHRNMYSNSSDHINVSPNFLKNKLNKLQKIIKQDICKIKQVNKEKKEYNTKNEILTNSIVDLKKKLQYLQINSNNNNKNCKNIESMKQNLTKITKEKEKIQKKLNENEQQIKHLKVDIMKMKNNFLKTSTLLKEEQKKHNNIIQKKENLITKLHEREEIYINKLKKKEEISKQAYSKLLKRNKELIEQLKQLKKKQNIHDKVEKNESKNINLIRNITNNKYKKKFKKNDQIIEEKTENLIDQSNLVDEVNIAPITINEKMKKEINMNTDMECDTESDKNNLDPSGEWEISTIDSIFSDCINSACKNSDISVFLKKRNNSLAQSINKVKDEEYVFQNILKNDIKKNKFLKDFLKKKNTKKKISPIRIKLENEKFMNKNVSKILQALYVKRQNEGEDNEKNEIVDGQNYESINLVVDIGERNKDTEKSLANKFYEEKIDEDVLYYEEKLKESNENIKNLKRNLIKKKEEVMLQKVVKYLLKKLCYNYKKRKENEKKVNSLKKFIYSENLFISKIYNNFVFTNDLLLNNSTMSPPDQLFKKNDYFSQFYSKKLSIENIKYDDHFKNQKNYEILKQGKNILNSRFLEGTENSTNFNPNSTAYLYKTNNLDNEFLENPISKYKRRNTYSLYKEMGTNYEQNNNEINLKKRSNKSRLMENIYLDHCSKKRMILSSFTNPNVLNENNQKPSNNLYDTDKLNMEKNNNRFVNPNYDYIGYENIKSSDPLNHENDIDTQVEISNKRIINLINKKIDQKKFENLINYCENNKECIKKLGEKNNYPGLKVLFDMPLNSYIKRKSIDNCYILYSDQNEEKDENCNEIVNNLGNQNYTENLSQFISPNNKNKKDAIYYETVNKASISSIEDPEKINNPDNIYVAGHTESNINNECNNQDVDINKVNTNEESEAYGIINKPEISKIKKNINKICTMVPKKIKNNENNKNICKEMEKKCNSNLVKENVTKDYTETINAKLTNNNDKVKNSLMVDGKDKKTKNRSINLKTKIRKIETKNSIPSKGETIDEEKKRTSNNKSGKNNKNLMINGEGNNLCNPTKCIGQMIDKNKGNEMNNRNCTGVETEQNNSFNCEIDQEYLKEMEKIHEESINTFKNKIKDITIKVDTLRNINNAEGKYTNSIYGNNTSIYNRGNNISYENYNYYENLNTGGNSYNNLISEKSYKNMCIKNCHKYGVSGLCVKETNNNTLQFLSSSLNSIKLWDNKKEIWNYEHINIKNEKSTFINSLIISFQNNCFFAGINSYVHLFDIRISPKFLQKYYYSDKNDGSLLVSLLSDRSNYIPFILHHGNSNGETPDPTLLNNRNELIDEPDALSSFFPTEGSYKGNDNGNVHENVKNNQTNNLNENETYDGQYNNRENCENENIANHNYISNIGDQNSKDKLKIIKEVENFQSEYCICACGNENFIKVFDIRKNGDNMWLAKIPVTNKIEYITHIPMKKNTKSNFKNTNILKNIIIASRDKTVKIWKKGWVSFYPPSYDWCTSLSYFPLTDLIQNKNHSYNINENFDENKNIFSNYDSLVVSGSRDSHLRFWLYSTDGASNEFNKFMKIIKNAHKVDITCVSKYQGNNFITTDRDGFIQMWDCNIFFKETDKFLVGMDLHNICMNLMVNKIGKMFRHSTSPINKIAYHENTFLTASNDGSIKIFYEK
UniProt A0A509AJU0: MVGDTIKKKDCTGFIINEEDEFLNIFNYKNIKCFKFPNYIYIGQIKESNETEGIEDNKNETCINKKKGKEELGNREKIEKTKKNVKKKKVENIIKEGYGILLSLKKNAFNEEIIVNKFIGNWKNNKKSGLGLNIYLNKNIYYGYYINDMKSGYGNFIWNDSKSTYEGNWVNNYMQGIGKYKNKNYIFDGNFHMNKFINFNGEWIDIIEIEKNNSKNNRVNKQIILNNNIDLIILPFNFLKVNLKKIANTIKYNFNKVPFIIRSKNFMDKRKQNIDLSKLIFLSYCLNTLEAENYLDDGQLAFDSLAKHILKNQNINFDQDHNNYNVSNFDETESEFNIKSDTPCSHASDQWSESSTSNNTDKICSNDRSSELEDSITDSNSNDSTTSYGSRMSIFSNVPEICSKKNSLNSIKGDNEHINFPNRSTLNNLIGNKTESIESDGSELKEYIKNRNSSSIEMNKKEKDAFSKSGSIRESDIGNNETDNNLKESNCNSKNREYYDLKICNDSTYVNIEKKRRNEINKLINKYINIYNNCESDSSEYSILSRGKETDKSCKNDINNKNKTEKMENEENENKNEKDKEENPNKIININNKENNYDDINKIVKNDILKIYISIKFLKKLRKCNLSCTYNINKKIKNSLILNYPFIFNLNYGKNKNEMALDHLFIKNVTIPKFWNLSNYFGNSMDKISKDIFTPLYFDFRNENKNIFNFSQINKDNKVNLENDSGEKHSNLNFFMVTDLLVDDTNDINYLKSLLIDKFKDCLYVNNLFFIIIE
UniProt A0A509AU31: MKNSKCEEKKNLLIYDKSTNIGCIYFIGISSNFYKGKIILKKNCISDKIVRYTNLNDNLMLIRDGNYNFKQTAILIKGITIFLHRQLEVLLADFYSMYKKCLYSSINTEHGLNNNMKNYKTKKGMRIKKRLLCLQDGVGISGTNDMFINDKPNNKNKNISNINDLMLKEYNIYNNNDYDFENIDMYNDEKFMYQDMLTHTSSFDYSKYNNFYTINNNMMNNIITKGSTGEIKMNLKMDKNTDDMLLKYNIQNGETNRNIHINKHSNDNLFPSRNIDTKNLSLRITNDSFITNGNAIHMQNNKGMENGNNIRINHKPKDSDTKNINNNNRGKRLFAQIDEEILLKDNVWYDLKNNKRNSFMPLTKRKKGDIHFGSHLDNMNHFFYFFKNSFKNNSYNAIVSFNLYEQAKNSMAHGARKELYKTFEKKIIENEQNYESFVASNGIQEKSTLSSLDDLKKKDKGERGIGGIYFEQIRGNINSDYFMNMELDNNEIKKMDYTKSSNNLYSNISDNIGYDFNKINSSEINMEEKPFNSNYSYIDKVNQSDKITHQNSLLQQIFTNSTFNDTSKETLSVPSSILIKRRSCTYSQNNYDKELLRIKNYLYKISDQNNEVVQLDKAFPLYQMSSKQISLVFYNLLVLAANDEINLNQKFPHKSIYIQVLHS

HOP1 (putative synaptonemal complex component, PBANKA_1407900) (from UniProt A0A509ATL7)
binding: binds

Kinesin-4 (PBANKA_1208200) (from UniProt A0A509AND3)
binding: binds

MORN repeat protein (PBANKA_1030400) (from UniProt A0A509AJU0)
binding: binds

REC8 (PBANKA_1419300) (from UniProt A0A509AU31)
binding: binds
